Test results taken from the supplement of paper PMC10849652.
The list shows a part of the results.

Sequences of proteins named here, by UniProt entry; tags and fusion partners are left off. A change or cut given only in a name is not applied to a line headed by its entry.
UniProt P51648: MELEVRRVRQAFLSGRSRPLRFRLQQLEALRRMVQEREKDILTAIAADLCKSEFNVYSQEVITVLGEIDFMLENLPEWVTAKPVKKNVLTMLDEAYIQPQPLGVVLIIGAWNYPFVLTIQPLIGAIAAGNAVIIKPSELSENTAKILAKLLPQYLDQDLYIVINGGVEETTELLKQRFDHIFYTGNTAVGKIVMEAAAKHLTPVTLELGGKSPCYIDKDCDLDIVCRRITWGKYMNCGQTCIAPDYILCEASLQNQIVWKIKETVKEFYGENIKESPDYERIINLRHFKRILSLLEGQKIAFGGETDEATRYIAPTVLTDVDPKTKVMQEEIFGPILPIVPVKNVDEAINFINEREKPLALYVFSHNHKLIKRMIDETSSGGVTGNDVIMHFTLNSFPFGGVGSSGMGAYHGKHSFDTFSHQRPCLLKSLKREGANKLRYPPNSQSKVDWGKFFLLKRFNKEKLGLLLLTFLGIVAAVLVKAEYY
UniProt P35611: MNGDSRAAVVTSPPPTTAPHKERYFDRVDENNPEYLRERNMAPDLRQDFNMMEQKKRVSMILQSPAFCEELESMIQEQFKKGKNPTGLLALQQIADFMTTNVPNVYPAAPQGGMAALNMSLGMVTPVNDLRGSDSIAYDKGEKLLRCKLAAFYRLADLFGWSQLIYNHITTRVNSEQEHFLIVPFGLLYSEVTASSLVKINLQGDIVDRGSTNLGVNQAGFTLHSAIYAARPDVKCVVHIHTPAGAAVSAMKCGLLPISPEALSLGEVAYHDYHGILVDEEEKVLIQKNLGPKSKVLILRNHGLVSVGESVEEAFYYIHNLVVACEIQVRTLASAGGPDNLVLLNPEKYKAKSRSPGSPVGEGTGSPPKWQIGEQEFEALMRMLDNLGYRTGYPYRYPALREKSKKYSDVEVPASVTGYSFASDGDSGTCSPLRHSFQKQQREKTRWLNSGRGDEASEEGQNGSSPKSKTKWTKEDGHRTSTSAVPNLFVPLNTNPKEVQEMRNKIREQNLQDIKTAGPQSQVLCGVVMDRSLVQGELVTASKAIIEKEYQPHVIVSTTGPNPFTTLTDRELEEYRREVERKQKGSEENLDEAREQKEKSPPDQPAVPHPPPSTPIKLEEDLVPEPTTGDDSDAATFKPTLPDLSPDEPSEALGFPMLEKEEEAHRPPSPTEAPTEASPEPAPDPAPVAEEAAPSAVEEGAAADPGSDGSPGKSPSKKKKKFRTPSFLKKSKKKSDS
UniProt Q96Q42: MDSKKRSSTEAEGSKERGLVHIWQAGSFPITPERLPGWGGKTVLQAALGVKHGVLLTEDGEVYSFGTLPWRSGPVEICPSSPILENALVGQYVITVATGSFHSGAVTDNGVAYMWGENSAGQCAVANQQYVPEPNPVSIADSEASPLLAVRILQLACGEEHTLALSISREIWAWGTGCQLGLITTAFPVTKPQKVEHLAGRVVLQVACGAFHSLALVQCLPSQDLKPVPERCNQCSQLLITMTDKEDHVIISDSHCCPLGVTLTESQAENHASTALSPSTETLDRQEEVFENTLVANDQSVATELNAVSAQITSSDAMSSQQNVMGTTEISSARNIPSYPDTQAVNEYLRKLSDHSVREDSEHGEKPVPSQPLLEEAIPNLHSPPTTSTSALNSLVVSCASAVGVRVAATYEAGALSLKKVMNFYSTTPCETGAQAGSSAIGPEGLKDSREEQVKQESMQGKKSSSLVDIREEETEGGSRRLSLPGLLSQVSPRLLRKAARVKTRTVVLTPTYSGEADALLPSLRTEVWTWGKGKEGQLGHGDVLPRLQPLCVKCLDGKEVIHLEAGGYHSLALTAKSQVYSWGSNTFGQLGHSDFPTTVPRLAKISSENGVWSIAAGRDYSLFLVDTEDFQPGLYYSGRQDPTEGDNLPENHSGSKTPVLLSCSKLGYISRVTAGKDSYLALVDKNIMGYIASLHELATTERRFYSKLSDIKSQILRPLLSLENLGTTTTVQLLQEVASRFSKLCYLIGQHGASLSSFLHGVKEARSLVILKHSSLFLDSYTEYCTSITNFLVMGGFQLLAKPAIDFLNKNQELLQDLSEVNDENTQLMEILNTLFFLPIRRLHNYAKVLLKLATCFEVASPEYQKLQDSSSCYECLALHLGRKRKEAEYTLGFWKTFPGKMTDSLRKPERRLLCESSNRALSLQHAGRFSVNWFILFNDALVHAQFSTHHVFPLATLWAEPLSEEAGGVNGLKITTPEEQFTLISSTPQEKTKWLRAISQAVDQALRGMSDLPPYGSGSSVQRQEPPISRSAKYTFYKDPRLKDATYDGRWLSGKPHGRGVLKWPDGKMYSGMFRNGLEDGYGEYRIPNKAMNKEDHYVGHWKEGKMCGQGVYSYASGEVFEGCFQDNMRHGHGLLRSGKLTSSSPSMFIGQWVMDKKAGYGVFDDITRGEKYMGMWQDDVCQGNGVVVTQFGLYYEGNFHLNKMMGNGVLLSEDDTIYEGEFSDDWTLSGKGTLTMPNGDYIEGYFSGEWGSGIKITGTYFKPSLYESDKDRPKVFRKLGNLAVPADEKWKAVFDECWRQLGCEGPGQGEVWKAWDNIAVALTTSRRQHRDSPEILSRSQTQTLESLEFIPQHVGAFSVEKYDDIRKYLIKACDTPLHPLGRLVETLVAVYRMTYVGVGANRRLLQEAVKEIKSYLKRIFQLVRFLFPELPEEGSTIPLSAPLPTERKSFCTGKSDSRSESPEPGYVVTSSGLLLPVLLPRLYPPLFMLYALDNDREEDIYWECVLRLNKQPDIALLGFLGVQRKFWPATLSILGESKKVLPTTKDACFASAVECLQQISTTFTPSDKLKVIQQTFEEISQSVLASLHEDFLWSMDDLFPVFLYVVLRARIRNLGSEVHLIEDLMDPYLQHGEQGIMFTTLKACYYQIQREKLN
UniProt P54922: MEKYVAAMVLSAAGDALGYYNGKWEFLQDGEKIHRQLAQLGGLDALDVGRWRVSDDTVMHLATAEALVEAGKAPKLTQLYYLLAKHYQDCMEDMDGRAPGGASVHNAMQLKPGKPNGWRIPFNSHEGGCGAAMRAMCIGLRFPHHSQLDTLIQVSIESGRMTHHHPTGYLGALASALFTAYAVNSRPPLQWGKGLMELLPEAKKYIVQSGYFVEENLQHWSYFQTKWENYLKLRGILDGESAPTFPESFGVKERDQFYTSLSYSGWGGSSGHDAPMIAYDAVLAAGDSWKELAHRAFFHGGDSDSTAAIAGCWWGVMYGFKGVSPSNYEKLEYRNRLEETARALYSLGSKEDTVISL
UniProt P55008: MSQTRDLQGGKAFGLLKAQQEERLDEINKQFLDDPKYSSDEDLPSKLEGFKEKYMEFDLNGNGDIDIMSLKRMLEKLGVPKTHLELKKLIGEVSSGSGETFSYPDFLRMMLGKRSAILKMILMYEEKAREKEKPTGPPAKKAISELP
UniProt P51828: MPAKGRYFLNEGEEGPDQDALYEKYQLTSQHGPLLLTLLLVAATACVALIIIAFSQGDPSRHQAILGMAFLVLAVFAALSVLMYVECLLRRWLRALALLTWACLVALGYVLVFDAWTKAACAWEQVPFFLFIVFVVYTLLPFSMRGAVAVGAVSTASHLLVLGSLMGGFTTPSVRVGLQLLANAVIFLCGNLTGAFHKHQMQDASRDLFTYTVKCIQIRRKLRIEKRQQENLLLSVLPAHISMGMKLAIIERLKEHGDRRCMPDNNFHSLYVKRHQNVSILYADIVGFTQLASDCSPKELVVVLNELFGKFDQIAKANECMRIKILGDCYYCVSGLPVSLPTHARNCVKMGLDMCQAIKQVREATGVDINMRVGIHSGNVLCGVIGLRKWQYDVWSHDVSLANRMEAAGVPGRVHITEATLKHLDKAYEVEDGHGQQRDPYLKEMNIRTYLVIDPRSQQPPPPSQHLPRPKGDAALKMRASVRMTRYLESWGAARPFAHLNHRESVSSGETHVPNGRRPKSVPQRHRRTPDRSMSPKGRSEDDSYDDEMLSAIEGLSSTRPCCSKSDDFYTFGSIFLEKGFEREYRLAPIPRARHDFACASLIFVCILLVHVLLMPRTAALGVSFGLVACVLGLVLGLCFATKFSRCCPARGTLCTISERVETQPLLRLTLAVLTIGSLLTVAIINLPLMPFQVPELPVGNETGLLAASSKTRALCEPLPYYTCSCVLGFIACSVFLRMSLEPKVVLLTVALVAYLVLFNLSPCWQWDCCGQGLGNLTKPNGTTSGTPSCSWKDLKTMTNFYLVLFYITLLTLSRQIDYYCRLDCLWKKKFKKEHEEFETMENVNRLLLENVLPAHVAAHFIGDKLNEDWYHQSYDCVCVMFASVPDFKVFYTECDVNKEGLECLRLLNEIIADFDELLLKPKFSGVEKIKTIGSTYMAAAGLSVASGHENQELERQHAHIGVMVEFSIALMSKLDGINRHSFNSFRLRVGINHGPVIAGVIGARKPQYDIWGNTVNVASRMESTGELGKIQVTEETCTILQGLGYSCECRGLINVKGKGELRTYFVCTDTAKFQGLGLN
UniProt Q3MIX3: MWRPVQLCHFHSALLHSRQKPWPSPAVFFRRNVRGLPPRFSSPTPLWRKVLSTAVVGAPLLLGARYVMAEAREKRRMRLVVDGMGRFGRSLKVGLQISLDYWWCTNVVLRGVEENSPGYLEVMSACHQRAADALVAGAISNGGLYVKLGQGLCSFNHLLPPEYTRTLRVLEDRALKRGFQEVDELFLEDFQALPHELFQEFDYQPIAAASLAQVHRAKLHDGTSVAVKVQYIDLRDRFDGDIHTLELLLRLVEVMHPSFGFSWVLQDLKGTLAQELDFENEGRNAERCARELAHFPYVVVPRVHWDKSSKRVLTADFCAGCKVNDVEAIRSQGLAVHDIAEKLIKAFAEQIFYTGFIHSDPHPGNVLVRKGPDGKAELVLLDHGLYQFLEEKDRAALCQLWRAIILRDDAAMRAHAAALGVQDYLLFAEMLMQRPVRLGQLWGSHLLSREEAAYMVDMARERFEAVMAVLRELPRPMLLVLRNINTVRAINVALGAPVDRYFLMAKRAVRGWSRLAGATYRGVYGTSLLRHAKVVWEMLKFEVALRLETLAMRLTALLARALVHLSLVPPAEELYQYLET
UniProt P17707: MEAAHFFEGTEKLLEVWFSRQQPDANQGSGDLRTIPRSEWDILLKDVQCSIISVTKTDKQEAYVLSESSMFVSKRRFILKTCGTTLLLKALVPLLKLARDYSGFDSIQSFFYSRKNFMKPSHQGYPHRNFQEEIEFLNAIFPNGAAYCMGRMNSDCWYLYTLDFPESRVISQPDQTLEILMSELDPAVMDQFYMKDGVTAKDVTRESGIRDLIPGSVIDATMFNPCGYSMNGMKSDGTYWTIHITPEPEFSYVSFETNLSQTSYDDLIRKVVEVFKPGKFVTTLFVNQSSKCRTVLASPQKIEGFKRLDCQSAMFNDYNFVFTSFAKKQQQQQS
UniProt P51825: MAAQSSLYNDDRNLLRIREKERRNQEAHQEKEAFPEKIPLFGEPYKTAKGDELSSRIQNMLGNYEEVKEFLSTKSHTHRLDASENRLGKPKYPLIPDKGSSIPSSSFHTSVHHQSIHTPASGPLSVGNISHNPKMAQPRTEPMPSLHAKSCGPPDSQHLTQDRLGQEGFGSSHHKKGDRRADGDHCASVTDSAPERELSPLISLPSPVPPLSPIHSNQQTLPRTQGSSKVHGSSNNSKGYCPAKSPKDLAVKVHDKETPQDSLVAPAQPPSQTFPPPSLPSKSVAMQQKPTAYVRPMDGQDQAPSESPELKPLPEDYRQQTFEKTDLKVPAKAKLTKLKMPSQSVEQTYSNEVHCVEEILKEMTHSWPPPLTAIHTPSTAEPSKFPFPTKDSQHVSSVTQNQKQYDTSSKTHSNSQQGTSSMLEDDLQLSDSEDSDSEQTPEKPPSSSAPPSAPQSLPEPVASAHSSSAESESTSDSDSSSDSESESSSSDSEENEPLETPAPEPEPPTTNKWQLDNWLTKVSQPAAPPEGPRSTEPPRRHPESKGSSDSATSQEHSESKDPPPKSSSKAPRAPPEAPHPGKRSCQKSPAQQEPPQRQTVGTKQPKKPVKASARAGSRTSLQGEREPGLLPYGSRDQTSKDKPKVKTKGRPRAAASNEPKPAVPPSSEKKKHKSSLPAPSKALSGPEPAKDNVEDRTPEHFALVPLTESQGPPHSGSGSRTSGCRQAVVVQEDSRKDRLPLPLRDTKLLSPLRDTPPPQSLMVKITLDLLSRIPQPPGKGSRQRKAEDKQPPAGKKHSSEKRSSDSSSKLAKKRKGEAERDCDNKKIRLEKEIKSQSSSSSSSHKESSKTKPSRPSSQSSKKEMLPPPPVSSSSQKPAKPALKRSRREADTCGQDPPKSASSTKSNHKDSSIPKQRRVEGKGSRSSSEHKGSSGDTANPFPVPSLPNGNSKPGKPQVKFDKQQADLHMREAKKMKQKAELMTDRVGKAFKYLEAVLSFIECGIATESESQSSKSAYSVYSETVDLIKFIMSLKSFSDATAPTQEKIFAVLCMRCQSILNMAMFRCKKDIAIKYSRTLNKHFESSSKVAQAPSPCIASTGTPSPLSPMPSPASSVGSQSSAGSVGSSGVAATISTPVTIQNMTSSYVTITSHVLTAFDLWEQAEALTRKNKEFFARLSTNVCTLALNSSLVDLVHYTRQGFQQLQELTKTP

What was measured:
Experiment in all cases: log2 fold change, soluble protein after heating vs DMSO (PISA); higher = thermal stabilisation; K562 cells, 10 uM, 30 min; active = over 0.2 and 3.5 SD of the protein, either way, in both replicates (recomputed)
[1] = compound: C1=CC=C(C=C1)[C@H](COC2=CC3=C(C=C2)NC(=O)N3)NC(=O)C4=CC=CN(C4=O)CC5=CC(=C(C=C5)F)F
Outline: (§1)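 K562 cells at 2×10^6 cells/mL were exposed to 10 μM compound for 30 min, then aliquots were heated for 3 min across 48°C-58°C, pooled, and extracted in PBS containing 0.5% NP-40 at 4°C. The supernatant after 21,000xg for 90 min was taken as soluble protein and measured by TMTpro 16plex LC-MS/MS with channel sums equalised. Thermal stability is reported relative to control samples, with values from duplicates. Fold changes are given on a log2 scale.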

[2] = compound: CC1=C2C(=CC=C1)N=C(N(C2=O)C3=CC=CC=C3C)CN4C=NC5=C(N=CN=C54)N
Outline: as §1

[3] = compound: CC1=C(SC2=C1C(=N[C@H](C3=NN=C(N32)C)CC(=O)N)C4=CC=C(C=C4)Cl)C
Outline: as §1

[4] = compound: c1ccc([C@@H]2C[C@H]2NC2CCNCC2)cc1
Outline: as §1

[5] = compound: Cc1sc2c(c1C)C(c1ccc(Cl)cc1)=N[C@@H](CC(=O)OC(C)(C)C)c1nnc(C)n1-2
Outline: as §1

Target	log2 fold change [1]	log2 fold change [2]	log2 fold change [3]	log2 fold change [4]	log2 fold change [5]
ALDH3A2 isoform 2 (UniProt P51648)	inactive: 0.01	inactive: 0.294	–	–	–
ADD1 isoform 4 (UniProt P35611)	inactive: -0.03	–	inactive: 0.04	inactive: 0.217	–
AGAP1 (UniProt Q9UPQ3)	–	inactive: -0.003	inactive: -0.046	inactive: 0.073	–
ALS2 (UniProt Q96Q42)	–	–	–	–	inactive: 0.016
ALOX12B (UniProt O75342)	inactive: -0.065	inactive: -0.645	–	–	inactive: -0.204
AKAP11 (UniProt Q9UKA4)	–	–	inactive: -0.124	inactive: -0.117	–
ADPRH (UniProt P54922)	inactive: -0.035	inactive: 0.344	–	–	inactive: -0.121
ANAPC11 (UniProt Q9NYG5)	inactive: 0.04	inactive: -0.024	inactive: 0.032	inactive: 0.071	–
AIF1 (UniProt P55008)	inactive: -0.114	inactive: 0.04	–	–	–
ADCY7 (UniProt P51828)	–	–	inactive: 0.055	inactive: -0.019	–
ADGRV1 (UniProt Q8WXG9)	inactive: -0.133	–	inactive: 0.005	inactive: 0.085	–
ADCK5 (UniProt Q3MIX3)	–	inactive: -0.106	–	–	inactive: 0.073
ALOX5 (UniProt P09917)	–	–	–	–	inactive: 0.03
AMD1 (UniProt P17707)	inactive: -0.021	inactive: 0.168	–	–	inactive: -0.164
AMMECR1 (UniProt Q9Y4X0)	–	inactive: 0.097	inactive: -0.085	inactive: 0.004	–
AKIRIN2 (UniProt Q53H80)	–	inactive: 0.063	inactive: 0.113	inactive: 0.015	inactive: -0.069
AKNA (UniProt Q7Z591)	–	–	inactive: 0.071	inactive: 0.206	–
AFF1 isoform 2 (UniProt P51825)	inactive: -0.333	inactive: -0.09	–	–	–
AGA (UniProt P20933)	inactive: 0.012	–	inactive: -0.395	inactive: 0.073	–
ADD3 isoform 2 (UniProt Q9UEY8)	–	inactive: -0.038	inactive: -0.075	inactive: 0	inactive: 0.007
ADGRE2 (UniProt Q9UHX3)	inactive: -0.075	inactive: 0.072	–	–	inactive: -0.103
AIG1 (UniProt Q9NVV5)	–	–	–	–	inactive: -0.01

Some of the entries above in another layout.
Target | log2 fold change [1] | log2 fold change [2] | log2 fold change [3] | log2 fold change [4] | log2 fold change [5]
AIF1 (UniProt P55008) | inactive: -0.114 | inactive: 0.04 | – | – | –
ADCY7 (UniProt P51828) | – | – | inactive: 0.055 | inactive: -0.019 | –
ADGRV1 (UniProt Q8WXG9) | inactive: -0.133 | – | inactive: 0.005 | inactive: 0.085 | –
ADCK5 (UniProt Q3MIX3) | – | inactive: -0.106 | – | – | inactive: 0.073
